From US12358892B2, “Metalloenzyme inhibitors for treating cancers, Alzheimer's disease, hemochromatosis, and other disorders” (Miralogx LLC, priority 2020, dated 2025)

Assay: Unsupervised similarity search of the BioMAP Reference Database

Structure (SMILES): c1ncc(C2=NCCC2)cc1C1=NCCC1 [Example 1]
- BioMAP Z-standard (Example 1 at 74 μM vs database match Cetylpyridin chloride, 1 μM): 21.119
- BioMAP Z-standard (Example 1 at 74 μM vs database match GDC0941, 370 nM): 21.6
- BioMAP Z-standard (Example 1 at 74 μM vs database match Idelalisib, 1 μM): 20.258
- common activities annotated (shared with cetylpyridinium chloride, SAg, BT, CASM3C, HDF3CGF, MyoF, lMphg systems): 18
